Results reported in US11173177B2, “Compounds for treatment of lipoprotein metabolism disorders” (Aarhus Universitet, priority 2016, dated 2021).
At least one structure is not confirmed: it was looked up by name or label, or the drawing left a doubt.

Test system: LDLR in HepG2 cells
Experiment: LDLR levels in HepG2 cells by Western blotting and densitometry
Format: cell-based, human
Conditions: 25, 100 or 250 μg/ml (0-250 μg/ml), 24 h
Protocol: In the heparin mimetic class of modified polysaccharides compounds dextran sulfate (FIG. 9 A-B) and pentosan (FIG. 9 D-E) were tested in a HepG2 based in vitro cell assay. After overnight incubation LDLR levels were evaluated by Western blotting showing a concentration dependent increase of LDLR upon treatment with dextran sulfate (0-200 μg/ml) with up to 3-fold up regulation of LDLR.
Control cells were incubated without additives (negative control) or 500 μg/ml heparin (positive control). LDLR levels were calculated with respect to the level found in lysate of HepG2 cells incubated without additives.
HepG2 cells were incubated with 0-200 μg/ml of heterogeneously sulfated hexamer or 18-mer oligosaccharides containing on average 1,3 sulfates per disaccharide. After over night incubation cells were harvested and the cellular level of LDLR was analyzed by Western blotting (FIG. 17 A) and quantified by densitometry (FIG. 17 B).

SMILES: CO[C@H]1O[C@H](COS(=O)(=O)O)[C@@H](O[C@@H]2O[C@@H](C(=O)O)[C@@H](O[C@H]3O[C@H](COS(=O)(=O)O)[C@@H](O[C@@H]4O[C@H](C(=O)O)[C@@H](O[C@H]5O[C@H](COS(=O)(=O)O)[C@@H](O)[C@H](O)[C@H]5NS(=O)(=O)O)[C@H](O)[C@H]4O)[C@H](OS(=O)(=O)O)[C@H]3NS(=O)(=O)O)[C@H](O)[C@H]2OS(=O)(=O)O)[C@H](O)[C@H]1NS(=O)(=O)O [Arixtra, Fondaparinux]
- LDLR levels evaluated by Western blotting: elevated level of LDLR
- LDLR levels evaluated by Western blotting (listed as Fondaparinux): increased levels of LDLR
